Holding throughout (assay): PRISMA enrichment of interactor (LFQ) in peptide spot vs all other peptide spots (log2 fold change); higher = stronger / more specific binding of the interactor to the peptide
One test has as its target ALKBH2, Q6NS38. The protocol:
(§1)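 PRISMA: 15-aa overlapping tiles (offset 8 aa) of 60 microproteins, plus SOS1/GLUT1 control peptides, were spot-synthesized on cellulose membranes in triplicate. Membranes were incubated with benzonase-treated HEK293T lysate, and bound proteins were identified by LC-MS/MS with LFQ. Enrichment is the log2 fold change of each protein in one spot versus all other spots. Only interactors passing the significance cutoff are listed.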

The chains behind the UniProt entries cited, without tags or fusion partners.
ATP6V0D1, P61421, UniProt P61421, whole entry: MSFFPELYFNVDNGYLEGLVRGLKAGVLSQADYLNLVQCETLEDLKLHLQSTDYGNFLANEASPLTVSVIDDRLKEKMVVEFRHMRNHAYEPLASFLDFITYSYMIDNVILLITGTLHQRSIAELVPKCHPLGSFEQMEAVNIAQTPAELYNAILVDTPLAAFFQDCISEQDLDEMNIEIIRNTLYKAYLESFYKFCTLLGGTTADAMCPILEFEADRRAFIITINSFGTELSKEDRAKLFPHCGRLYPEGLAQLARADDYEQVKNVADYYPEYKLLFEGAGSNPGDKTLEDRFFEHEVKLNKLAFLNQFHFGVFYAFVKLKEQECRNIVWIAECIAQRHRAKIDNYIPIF
FLNB, O75369, UniProt O75369, whole entry: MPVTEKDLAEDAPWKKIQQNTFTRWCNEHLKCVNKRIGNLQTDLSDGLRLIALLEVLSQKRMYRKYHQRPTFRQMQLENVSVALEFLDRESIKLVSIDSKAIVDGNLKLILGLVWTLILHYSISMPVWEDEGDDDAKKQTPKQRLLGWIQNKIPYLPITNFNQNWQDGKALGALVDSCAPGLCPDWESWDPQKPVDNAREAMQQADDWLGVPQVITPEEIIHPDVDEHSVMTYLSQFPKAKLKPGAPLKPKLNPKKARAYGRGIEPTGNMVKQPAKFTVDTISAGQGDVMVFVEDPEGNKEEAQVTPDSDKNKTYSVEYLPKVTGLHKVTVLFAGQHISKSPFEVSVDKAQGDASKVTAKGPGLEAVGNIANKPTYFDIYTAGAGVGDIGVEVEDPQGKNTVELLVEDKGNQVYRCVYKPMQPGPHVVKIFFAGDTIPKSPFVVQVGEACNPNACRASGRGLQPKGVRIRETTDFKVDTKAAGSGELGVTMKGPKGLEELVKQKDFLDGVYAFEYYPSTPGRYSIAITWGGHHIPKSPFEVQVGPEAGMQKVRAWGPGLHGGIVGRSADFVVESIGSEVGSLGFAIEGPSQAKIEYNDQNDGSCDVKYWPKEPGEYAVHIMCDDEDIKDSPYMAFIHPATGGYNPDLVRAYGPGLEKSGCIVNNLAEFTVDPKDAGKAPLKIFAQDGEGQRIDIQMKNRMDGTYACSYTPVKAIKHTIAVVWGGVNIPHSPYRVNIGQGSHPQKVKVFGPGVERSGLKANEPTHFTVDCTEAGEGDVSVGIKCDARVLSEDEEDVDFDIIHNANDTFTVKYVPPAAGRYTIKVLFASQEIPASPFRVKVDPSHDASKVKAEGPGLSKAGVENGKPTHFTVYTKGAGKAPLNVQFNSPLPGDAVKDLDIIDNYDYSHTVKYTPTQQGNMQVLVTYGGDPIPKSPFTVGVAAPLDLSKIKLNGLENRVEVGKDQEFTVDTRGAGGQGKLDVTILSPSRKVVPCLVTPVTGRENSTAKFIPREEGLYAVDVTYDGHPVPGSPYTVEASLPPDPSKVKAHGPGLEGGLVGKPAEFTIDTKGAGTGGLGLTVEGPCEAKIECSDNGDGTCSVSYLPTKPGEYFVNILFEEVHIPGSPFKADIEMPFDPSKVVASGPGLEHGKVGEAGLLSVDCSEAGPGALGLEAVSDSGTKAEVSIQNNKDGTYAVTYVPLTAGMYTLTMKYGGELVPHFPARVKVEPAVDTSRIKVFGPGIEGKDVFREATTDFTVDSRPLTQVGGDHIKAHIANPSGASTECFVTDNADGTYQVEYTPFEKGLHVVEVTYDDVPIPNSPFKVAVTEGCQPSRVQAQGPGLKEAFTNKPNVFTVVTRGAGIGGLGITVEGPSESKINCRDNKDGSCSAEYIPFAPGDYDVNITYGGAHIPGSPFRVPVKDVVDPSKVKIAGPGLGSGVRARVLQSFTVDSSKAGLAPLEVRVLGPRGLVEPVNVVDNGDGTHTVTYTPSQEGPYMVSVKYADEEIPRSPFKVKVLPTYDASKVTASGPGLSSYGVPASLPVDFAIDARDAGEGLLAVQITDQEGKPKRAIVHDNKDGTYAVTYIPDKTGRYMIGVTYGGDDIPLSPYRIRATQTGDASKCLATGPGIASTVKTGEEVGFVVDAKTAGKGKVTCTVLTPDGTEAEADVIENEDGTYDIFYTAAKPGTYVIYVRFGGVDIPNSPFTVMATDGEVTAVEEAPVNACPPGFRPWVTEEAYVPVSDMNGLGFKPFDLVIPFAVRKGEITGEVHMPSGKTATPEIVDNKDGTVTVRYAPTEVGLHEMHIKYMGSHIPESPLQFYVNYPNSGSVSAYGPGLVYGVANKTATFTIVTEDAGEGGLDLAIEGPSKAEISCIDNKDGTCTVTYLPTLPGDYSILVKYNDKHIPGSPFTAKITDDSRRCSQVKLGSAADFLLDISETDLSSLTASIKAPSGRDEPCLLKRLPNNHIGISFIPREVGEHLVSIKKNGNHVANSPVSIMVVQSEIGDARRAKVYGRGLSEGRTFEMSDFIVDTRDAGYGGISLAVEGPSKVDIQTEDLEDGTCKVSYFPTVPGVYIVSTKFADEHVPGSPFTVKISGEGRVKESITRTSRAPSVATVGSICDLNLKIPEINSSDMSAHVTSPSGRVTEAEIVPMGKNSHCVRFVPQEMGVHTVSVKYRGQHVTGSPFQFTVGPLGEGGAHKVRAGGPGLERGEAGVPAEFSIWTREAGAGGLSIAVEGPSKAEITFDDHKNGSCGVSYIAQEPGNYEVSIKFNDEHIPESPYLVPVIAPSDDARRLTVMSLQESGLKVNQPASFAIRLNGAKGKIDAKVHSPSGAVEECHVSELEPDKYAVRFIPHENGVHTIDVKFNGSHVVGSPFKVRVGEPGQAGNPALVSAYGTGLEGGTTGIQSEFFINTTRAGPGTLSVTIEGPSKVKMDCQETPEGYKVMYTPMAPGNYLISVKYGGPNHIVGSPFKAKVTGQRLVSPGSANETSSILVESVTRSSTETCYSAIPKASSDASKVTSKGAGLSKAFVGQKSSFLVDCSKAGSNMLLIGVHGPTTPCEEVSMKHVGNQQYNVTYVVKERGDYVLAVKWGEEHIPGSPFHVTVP
EIF2B4, Q9UI10, UniProt Q9UI10, whole entry: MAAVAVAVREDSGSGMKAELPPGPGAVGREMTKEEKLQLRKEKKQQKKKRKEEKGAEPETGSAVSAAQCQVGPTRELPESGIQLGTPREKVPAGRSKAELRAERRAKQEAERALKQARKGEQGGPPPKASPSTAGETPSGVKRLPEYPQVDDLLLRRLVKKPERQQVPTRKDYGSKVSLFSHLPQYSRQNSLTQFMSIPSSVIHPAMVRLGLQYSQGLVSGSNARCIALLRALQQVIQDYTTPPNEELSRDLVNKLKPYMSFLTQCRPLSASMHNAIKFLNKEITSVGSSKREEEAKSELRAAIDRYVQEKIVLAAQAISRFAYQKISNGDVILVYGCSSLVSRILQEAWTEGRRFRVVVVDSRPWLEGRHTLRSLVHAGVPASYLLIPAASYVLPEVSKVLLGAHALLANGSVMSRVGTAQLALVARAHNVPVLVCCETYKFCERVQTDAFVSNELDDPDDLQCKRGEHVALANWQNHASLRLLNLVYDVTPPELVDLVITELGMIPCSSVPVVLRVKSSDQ
FXR2, P51116, UniProt P51116, whole entry: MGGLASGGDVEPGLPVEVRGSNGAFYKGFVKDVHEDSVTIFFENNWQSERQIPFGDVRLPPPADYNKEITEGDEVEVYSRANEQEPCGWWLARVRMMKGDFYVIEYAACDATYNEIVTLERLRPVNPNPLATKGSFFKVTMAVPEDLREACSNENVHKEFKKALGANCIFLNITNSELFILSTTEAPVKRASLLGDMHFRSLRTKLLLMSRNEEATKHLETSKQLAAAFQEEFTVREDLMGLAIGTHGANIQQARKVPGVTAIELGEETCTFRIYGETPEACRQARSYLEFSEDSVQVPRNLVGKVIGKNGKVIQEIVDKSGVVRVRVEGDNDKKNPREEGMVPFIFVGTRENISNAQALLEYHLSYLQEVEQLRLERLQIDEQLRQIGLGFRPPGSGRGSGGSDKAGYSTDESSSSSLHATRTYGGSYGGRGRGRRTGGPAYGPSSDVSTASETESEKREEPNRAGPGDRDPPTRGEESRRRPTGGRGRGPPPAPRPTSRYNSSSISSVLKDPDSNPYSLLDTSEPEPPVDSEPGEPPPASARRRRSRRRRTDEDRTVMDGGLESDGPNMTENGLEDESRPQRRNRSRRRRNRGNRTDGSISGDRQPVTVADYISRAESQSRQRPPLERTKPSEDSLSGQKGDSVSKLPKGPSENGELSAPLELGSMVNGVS
NDUFC2, O95298, UniProt O95298, whole entry: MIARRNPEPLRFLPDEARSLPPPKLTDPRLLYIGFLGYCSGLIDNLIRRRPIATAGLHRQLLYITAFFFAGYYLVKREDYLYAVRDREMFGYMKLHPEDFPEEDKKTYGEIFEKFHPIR
NDUFS2, O75306, UniProt O75306, whole entry: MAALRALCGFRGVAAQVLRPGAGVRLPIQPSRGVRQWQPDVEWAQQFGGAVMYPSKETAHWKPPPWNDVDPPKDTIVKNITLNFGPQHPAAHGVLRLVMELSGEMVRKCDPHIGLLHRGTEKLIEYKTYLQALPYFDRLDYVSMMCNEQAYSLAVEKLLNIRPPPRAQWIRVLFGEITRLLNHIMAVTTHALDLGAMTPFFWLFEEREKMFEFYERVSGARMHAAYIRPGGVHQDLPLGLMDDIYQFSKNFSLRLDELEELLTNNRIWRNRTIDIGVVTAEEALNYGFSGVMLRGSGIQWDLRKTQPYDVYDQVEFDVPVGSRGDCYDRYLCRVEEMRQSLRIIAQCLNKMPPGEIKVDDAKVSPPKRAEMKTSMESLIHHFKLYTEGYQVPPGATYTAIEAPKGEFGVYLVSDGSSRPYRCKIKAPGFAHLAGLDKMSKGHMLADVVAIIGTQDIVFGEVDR

A further test deals with ATP6V0D1, P61421. On the procedure:
as §1

The target of the next test is DDX49, Q9Y6V7. The protocol:
as §1

The target in another test is FLNB, O75369. The protocol:
as §1

A further test has as its target OPA1, O60313. On the procedure: as §1
The target of a further test is ORC4, O43929. The protocol: as §1
In another test the target is SCP2, P22307. The protocol:
as §1

The target in another test is TSR1, Q2NL82. The protocol: as §1
For another test, the target named is ALG6, Q9Y672. The protocol:
as §1

Another test concerns the target BSDC1, Q9NW68. On the procedure:
as §1

Another test addresses CASP14, P31944. The protocol:
as §1

The next test concerns the target CLSPN, Q9HAW4. The protocol: as §1
The target in another test is EIF2B4, Q9UI10. On the procedure: as §1
The target in the next test is FXR2, P51116. The protocol: as §1
The target of the next test is GEMIN5, Q8TEQ6. On the procedure: as §1
The target in another test is MRPL34, Q9BQ48. On the procedure:
as §1

The target in the next test is NDUFC2, O95298. The protocol: as §1
Another test deals with NSDHL, Q15738. The protocol:
as §1

A further test addresses NUP98, P52948. On the procedure:
as §1

The target in the next test is RSRC2, Q7L4I2. On the procedure:
as §1

The next test addresses TBCD, Q9BTW9. On the procedure: as §1
The target of another test is TRIR, Q9BQ61. On the procedure:
as §1

The target in a further test is UFL1, O94874. The protocol:
as §1

Another test has as its target ZC3HAV1, Q7Z2W4. The protocol:
as §1

The target of the next test is ALDOB, P05062. On the procedure: as §1
In the next test the target is APOA4, P06727. On the procedure:
as §1

The next test addresses HOMER1, Q86YM7. The protocol: as §1
The next test has as its target NDUFS2, O75306. On the procedure:
as §1

The next test has as its target NMD3, Q96D46. On the procedure: as §1
For another test, the target named is PDCD6, O75340. On the procedure:
as §1

A further test deals with RPP38, P78345. On the procedure: as §1
For the next test, the target named is SLC25A22, Q9H936. On the procedure: as §1
The target of another test is C1QBP, Q07021. On the procedure:
as §1

The target of a further test is EAPP, Q56P03. The protocol: as §1
For the next test, the target named is FYTTD1, Q96QD9. The protocol:
as §1

The target in another test is HSD17B12, Q53GQ0. The protocol:
as §1

In another test the target is HSPA4, P34932. The protocol: as §1
Another test concerns the target LRFN3, Q9BTN0. The protocol: as §1
The next test has as its target MRPL14, Q6P1L8. The protocol: as §1
The target of a further test is MRPL27, Q9P0M9. On the procedure:
as §1

The next test has as its target MYCBP2, O75592. The protocol:
as §1

The next test has as its target P4HB, P07237. The protocol: as §1
Another test has as its target PDCD6IP, Q8WUM4. On the procedure: as §1
In another test the target is SPTY2D1, Q68D10. The protocol: as §1
Another test has as its target TEX264, Q9Y6I9. On the procedure: as §1
The next test concerns the target VARS, P26640. The protocol:
as §1

The next test has as its target ZNF24, P17028. The protocol:
as §1

The text below walks through data of the supplement of paper PMC10032668.

The list shows a part of the results. The list holds hits alone, and they repeat only in part.

As for EPGSIFMPLSEPPSD [NAV2-AS2_2], the “PRISMA enrichment of interactor (log2)” value came out at 4.45 in the test with ALKBH2, Q6NS38; 6.14 with ATP6V0D1, P61421; 5.65 with DDX49, Q9Y6V7; 4.36 in the test with FLNB, O75369; 5.95 with OPA1, O60313; 5.54 in the test with ORC4, O43929. Moreover, the “PRISMA enrichment of interactor (log2)” value with SCP2, P22307 was found to be 5.48; with TSR1, Q2NL82, 5.51.
As to GRKQRRPSASCTFGG [LINC01560], the “PRISMA enrichment of interactor (log2)” value with ALG6, Q9Y672 was determined as 4.73; with BSDC1, Q9NW68, 3.97; with CASP14, P31944, 4.76; with CLSPN, Q9HAW4 it was 4.09; in the test with EIF2B4, Q9UI10, 4.81; in the test with FXR2, P51116 it was 4.71. The “PRISMA enrichment of interactor (log2)” value worked out at 4.78 in the test with GEMIN5, Q8TEQ6; 4.47 in the test with MRPL34, Q9BQ48; 4.86 in the test with NDUFC2, O95298; 4.05 with NSDHL, Q15738; 4.97 with NUP98, P52948; 4.41 in the test with RSRC2, Q7L4I2. Also, the “PRISMA enrichment of interactor (log2)” value with TBCD, Q9BTW9 stood at 7.47; in the test with TRIR, Q9BQ61, 4.26; with UFL1, O94874 it was 4.34; with ZC3HAV1, Q7Z2W4, 5.18.
For the molecule MSRKKAQPAGLSWKP [RP11-140K17.3_2], the “PRISMA enrichment of interactor (log2)” value came out at 4.19 with ALDOB, P05062; 5.1 with APOA4, P06727; 7.17 with HOMER1, Q86YM7; 6.38 in the test with NDUFS2, O75306; 9.97 in the test with NMD3, Q96D46; 5.07 with PDCD6, O75340. Further, the “PRISMA enrichment of interactor (log2)” value in the test with RPP38, P78345 was determined as 4.39; with SLC25A22, Q9H936, 5.65.
Regarding LGAQARPPRRAPGGR [TUG1], the “PRISMA enrichment of interactor (log2)” value is 4.27 with ALG6, Q9Y672; 6.16 in the test with C1QBP, Q07021; 5.94 with EAPP, Q56P03; 6.65 with FYTTD1, Q96QD9; 5.15 with HSD17B12, Q53GQ0; 5.49 with HSPA4, P34932. The “PRISMA enrichment of interactor (log2)” value is 3.8 with LRFN3, Q9BTN0; 4.94 in the test with MRPL14, Q6P1L8; 8.26 with MRPL27, Q9P0M9; 7.67 with MYCBP2, O75592; 6.18 with P4HB, P07237; 4.59 with PDCD6IP, Q8WUM4. Also, the “PRISMA enrichment of interactor (log2)” value amounted to 5.28 in the test with SPTY2D1, Q68D10; 5.36 in the test with TEX264, Q9Y6I9; 5.05 in the test with VARS, P26640; 5.29 with ZNF24, P17028.
